{
  "source": "PubChem BioAssay AID2685",
  "about": "(National Center for Advancing Translational Sciences (NCATS), 2010)",
  "test": "qHTS Assay for Lipid Storage Modulators in Drosophila S3 Cells;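 on cell number change: cells counted by Cell Tracker Red CMTPX staining in the red channel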",
  "conditions": "BODIPY lipid droplet fluorescence, 18-24 h; for cell number change: measured here: cell count max response, cells fed with added oleic acid",
  "method_in_brief": "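Drosophila S3 cells loaded with oleic acid (400 uM, as added) and compounds at several concentrations; lipid droplets imaged by 488-nm laser-scanning cytometry, 500–530 nm intensity and object ratio to cell channel. Percent activity normalized to 20 uM Triacsin C.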",
  "key": {"[1]": {"conditions": "measured here: lipid fluorescence (Fed channel) AC50, cells fed with added oleic acid"}, "[2]": {"conditions": "measured here: cell number channel AC50, cells fed with added oleic acid"}},
  "note": "The list shows a part of the results. The main result of the screen is listed elsewhere. These columns were measured beside it and carry no call. The list favours compounds with an active or inconclusive main result. The note in brackets gives the kind of curve behind each potency; many fits are weak.",
  "data": [
    {"smiles": "O=C(CSc1cccc(C(F)(F)F)c1)NCc1ccccc1", "values": [
      {"measurement": "cell number change", "result": -23.7, "unit": "%"},
      {"measurement": "AC50", "setting": "[1]", "result": "0.326 µM [falling, full curve]"}
    ]},
    {"smiles": "COc1ccc(O)c(/C=N/NC(=O)CCC(=O)Nc2ccc(F)cc2)c1", "values": [
      {"measurement": "cell number change", "result": -35.7, "unit": "%"},
      {"measurement": "AC50", "setting": "[2]", "result": "7.31 µM [falling, partial curve]"},
      {"measurement": "AC50", "setting": "[1]", "result": "29.1 µM [falling, single point]"}
    ]},
    {"smiles": "O=C(CNC(=S)N(CCCN1CCOCC1)Cc1cccs1)NC1CCCCC1", "values": [
      {"measurement": "cell number change", "result": 19, "unit": "%"},
      {"measurement": "AC50", "setting": "[1]", "result": "20.6 µM [rising, single point]"}
    ]},
    {"smiles": "COc1ccc(-c2cc(-c3ccccc3)c(C#N)c(=S)[nH]2)cc1", "values": [
      {"measurement": "cell number change", "result": -32, "unit": "%"},
      {"measurement": "AC50", "setting": "[2]", "result": "0.82 µM [falling, full curve, poor fit]"},
      {"measurement": "AC50", "setting": "[1]", "result": "0.517 µM [falling, full curve]"}
    ]},
    {"smiles": "Cc1cccnc1NC(=O)CCc1nnc2ccc(N3CCC4(CC3)OCCO4)nn12", "values": [
      {"measurement": "cell number change", "result": 6.49, "unit": "%"},
      {"measurement": "AC50", "setting": "[1]", "result": "29.1 µM [rising, single point]"}
    ]},
    {"smiles": "O=C(NC1CCCCC1)C(c1cccnc1)N(C(=O)c1csnn1)c1ccccc1F", "note": "(centres undefined)", "values": [
      {"measurement": "cell number change", "result": 13, "unit": "%"},
      {"measurement": "AC50", "setting": "[1]", "result": "0.206 µM [rising, single point]"}
    ]},
    {"smiles": "COc1ccccc1NC(=S)N(Cc1cccnc1)Cc1ccco1", "values": [
      {"measurement": "cell number change", "result": 41.3, "unit": "%"},
      {"measurement": "AC50", "setting": "[2]", "result": "18.4 µM [rising, single point]"},
      {"measurement": "AC50", "setting": "[1]", "result": "18.4 µM [rising, single point]"}
    ]},
    {"smiles": "N#Cc1nc(Cc2ccccc2)oc1N1CCC(C(N)=O)CC1", "values": [
      {"measurement": "cell number change", "result": 17.2, "unit": "%"},
      {"measurement": "AC50", "setting": "[1]", "result": "0.326 µM [falling, full curve, poor fit]"}
    ]},
    {"smiles": "Nc1nnc(SCC(=O)OCC(=O)c2ccccc2)s1", "values": [
      {"measurement": "cell number change", "result": -42.2, "unit": "%"},
      {"measurement": "AC50", "setting": "[2]", "result": "0.164 µM [falling, full curve, poor fit]"},
      {"measurement": "AC50", "setting": "[1]", "result": "0.164 µM [falling, full curve, poor fit]"}
    ]},
    {"smiles": "CCOC(=O)N1CCC(Nc2c(NCCCN(CC)c3cccc(C)c3)c(=O)c2=O)CC1", "values": [
      {"measurement": "cell number change", "result": 14.7, "unit": "%"},
      {"measurement": "AC50", "setting": "[1]", "result": "1.64 µM [falling, partial curve]"}
    ]},
    {"smiles": "NC(=O)c1nsc(C(=O)N(Cc2ccco2)C(C(=O)NCC2CCCO2)c2ccc(O)cc2)c1N", "note": "(centres undefined)", "values": [
      {"measurement": "cell number change", "result": -13.9, "unit": "%"},
      {"measurement": "AC50", "setting": "[1]", "result": "29.1 µM [falling, single point]"}
    ]},
    {"smiles": "COc1ccccc1NC(=O)Cn1cnc2c(nc3n2CCCCC3)c1=O", "values": [
      {"measurement": "cell number change", "result": 29, "unit": "%"},
      {"measurement": "AC50", "setting": "[1]", "result": "16.4 µM [rising, partial curve]"}
    ]},
    {"smiles": "Cn1c(=O)c2c(nc(OCc3cccnc3)n2Cc2c(F)cccc2Cl)n(C)c1=O", "values": [
      {"measurement": "AC50", "setting": "[1]", "result": "3.66 µM [rising, partial curve]"}
    ]},
    {"smiles": "O=C(CSc1ncnc2c1oc1ccccc12)NCc1ccc(F)cc1", "values": [
      {"measurement": "cell number change", "result": 12.8, "unit": "%"},
      {"measurement": "AC50", "setting": "[1]", "result": "1.16 µM [rising, full curve, poor fit]"}
    ]},
    {"smiles": "Cc1cc(Br)ccc1NC(=O)CNC(=O)Cc1ccc(S(=O)(=O)N2CCOCC2)s1", "values": [
      {"measurement": "cell number change", "result": 3.06, "unit": "%"},
      {"measurement": "AC50", "setting": "[1]", "result": "0.82 µM [falling, single point]"}
    ]},
    {"smiles": "O=C1c2ccccc2C(=O)N1Cc1nc(-c2ccccn2)no1", "values": [
      {"measurement": "cell number change", "result": -18.4, "unit": "%"},
      {"measurement": "AC50", "setting": "[1]", "result": "6.51 µM [rising, single point]"}
    ]},
    {"smiles": "CC1(C)CN(c2ccc(C(=O)c3ccccc3)cc2)C1=O", "values": [
      {"measurement": "cell number change", "result": 24, "unit": "%"},
      {"measurement": "AC50", "setting": "[1]", "result": "2.91 µM [falling, single point]"}
    ]},
    {"smiles": "Oc1oc(-c2ccco2)nc1C=Nc1cccc(Cl)c1", "values": [
      {"measurement": "cell number change", "result": -12.5, "unit": "%"}
    ]},
    {"smiles": "CCOC(=O)c1cnn(CC2CCCCC2)c1N", "values": [
      {"measurement": "cell number change", "result": -10.2, "unit": "%"},
      {"measurement": "AC50", "setting": "[1]", "result": "0.231 µM [falling, full curve]"}
    ]},
    {"smiles": "COc1cc2c(cc1NC(=O)Nc1ccc(C)cc1)oc1ccccc12", "values": [
      {"measurement": "cell number change", "result": -15.6, "unit": "%"}
    ]},
    {"smiles": "COCC(C)n1c(SCC(=O)c2cc(C)n(C)c2C)nc2ccccc2c1=O", "note": "(centres undefined)", "values": [
      {"measurement": "cell number change", "result": 37.7, "unit": "%"},
      {"measurement": "AC50", "setting": "[2]", "result": "0.0231 µM [rising, full curve, poor fit]"},
      {"measurement": "AC50", "setting": "[1]", "result": "29.1 µM [rising, single point]"}
    ]},
    {"smiles": "Cc1cccc(NC(=O)NNC(=O)CCc2ccccc2)c1", "values": [
      {"measurement": "cell number change", "result": 19.8, "unit": "%"},
      {"measurement": "AC50", "setting": "[1]", "result": "0.13 µM [rising, full curve, poor fit]"}
    ]},
    {"smiles": "Cc1ccc2[nH]c3c(=O)n(CCC4=CCCCC4)cnc3c2c1", "values": [
      {"measurement": "cell number change", "result": 94.9, "unit": "%"}
    ]},
    {"smiles": "O=C(CN(C1CCCCC1)S(=O)(=O)c1ccc(Cl)cc1)N1CCOCC1", "values": [
      {"measurement": "cell number change", "result": -7.99, "unit": "%"},
      {"measurement": "AC50", "setting": "[1]", "result": "29.1 µM [rising, single point]"}
    ]},
    {"smiles": "CC1CC(C)CN(S(=O)(=O)N2CCCC(C(=O)NCCCN3CCCCC3C)C2)C1", "note": "(centres undefined)", "values": [
      {"measurement": "cell number change", "result": 9.48, "unit": "%"}
    ]},
    {"smiles": "COc1cc(OC)cc(-c2nnc(N(C)C(=O)c3ccncc3)s2)c1", "values": [
      {"measurement": "cell number change", "result": 18.1, "unit": "%"},
      {"measurement": "AC50", "setting": "[2]", "result": "3.66 µM [rising, single point]"}
    ]},
    {"smiles": "COCCn1c(-c2ccc(Cl)cc2Cl)nc2c(c(=O)c3ccccc3n2C)c1=O", "values": [
      {"measurement": "cell number change", "result": 21.9, "unit": "%"},
      {"measurement": "AC50", "setting": "[1]", "result": "0.184 µM [rising, full curve, poor fit]"}
    ]},
    {"smiles": "CCc1ccc(CN(C)C(=O)c2cc(COc3cc(C)c(Cl)c(C)c3)on2)nc1", "values": [
      {"measurement": "cell number change", "result": 0.295, "unit": "%"}
    ]},
    {"smiles": "COc1ccc(OC)c(NC(=O)Nc2ccc3c(c2)CCC3)c1", "values": [
      {"measurement": "cell number change", "result": -46.5, "unit": "%"},
      {"measurement": "AC50", "setting": "[2]", "result": "11.2 µM [falling, partial curve]"},
      {"measurement": "AC50", "setting": "[1]", "result": "22.4 µM [falling, single point]"}
    ]},
    {"smiles": "CCN(C(=O)c1cnc(N2CCN(c3ncccn3)CC2)c2ccccc12)c1cccc(Cl)c1", "values": [
      {"measurement": "cell number change", "result": -8, "unit": "%"},
      {"measurement": "AC50", "setting": "[1]", "result": "29.1 µM [falling, single point]"}
    ]},
    {"smiles": "CCOC(=O)C1CCN(C2=C(NS(=O)(=O)c3ccc(Br)cc3)C(=O)c3ccccc3C2=O)CC1", "values": [
      {"measurement": "cell number change", "result": -79.1, "unit": "%"},
      {"measurement": "AC50", "setting": "[2]", "result": "13 µM [falling, partial curve, poor fit]"},
      {"measurement": "AC50", "setting": "[1]", "result": "10.3 µM [falling, single point]"}
    ]},
    {"smiles": "CC(C)Oc1ccccc1/C=N/NC(=O)C1CCCC1", "values": [
      {"measurement": "cell number change", "result": 38.8, "unit": "%"}
    ]},
    {"smiles": "O=[N+]([O-])c1ccc(C[n+]2cc(-c3ccc(Cl)c(Cl)c3)n3c2CCCCC3)cc1", "values": [
      {"measurement": "cell number change", "result": 29.9, "unit": "%"}
    ]},
    {"smiles": "CCn1c(SCC(=O)c2[nH]c(C)c(C(C)=O)c2C)nnc1-c1ccncc1", "values": [
      {"measurement": "cell number change", "result": 39.3, "unit": "%"},
      {"measurement": "AC50", "setting": "[2]", "result": "7.31 µM [rising, partial curve, poor fit]"},
      {"measurement": "AC50", "setting": "[1]", "result": "20.6 µM [rising, partial curve]"}
    ]},
    {"smiles": "O=[N+]([O-])c1ccc2c(c1N1CCCCC1)=NC1(CCCCC1)[N+]=2[O-]", "values": [
      {"measurement": "cell number change", "result": 7.58, "unit": "%"},
      {"measurement": "AC50", "setting": "[2]", "result": "0.82 µM [falling, single point]"},
      {"measurement": "AC50", "setting": "[1]", "result": "0.731 µM [falling, single point]"}
    ]},
    {"smiles": "COc1ccc(-c2nn(-c3ccccc3)cc2C#N)cc1", "values": [
      {"measurement": "AC50", "setting": "[2]", "result": "6.51 µM [rising, single point]"},
      {"measurement": "AC50", "setting": "[1]", "result": "6.51 µM [rising, partial curve]"}
    ]},
    {"smiles": "CN(CCCN1CCOCC1)C(=O)c1cc(COc2ccc(F)cc2F)on1", "values": [
      {"measurement": "AC50", "setting": "[1]", "result": "5.17 µM [falling, single point]"}
    ]}
  ]
}
